Some of the results follow.
Tests used:
Assay in all cases: log2 fold change, soluble protein after heating vs DMSO (PISA); higher = thermal stabilisation; K562 cells, 10 uM, 30 min; active = over 0.2 and 3.5 SD of the protein, either way, in both replicates (recomputed)
[1] = compound: CC1=C(SC2=C1C(=N[C@H](C3=NN=C(N32)C)CC(=O)N)C4=CC=C(C=C4)Cl)C
Method in brief: (§1)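 Soluble protein was quantified by TMTpro 16plex LC-MS/MS after channel sums were equalised. It was obtained as the supernatant after 21,000xg for 90 min from pooled aliquots of K562 cells (2×10^6 cells/mL, 10 μM compound, 30 min) heated for 3 min across 48°C-58°C and extracted in PBS with 0.5% NP-40 at 4°C. Thermal stability values are relative to control samples and come from duplicates. They are given as log2 fold changes.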

The chains behind the UniProt entries cited, without tags or fusion partners. Where a name states a change or a piece, a line headed by the entry shows the natural chain unless it says otherwise.
UniProt Q5THK1: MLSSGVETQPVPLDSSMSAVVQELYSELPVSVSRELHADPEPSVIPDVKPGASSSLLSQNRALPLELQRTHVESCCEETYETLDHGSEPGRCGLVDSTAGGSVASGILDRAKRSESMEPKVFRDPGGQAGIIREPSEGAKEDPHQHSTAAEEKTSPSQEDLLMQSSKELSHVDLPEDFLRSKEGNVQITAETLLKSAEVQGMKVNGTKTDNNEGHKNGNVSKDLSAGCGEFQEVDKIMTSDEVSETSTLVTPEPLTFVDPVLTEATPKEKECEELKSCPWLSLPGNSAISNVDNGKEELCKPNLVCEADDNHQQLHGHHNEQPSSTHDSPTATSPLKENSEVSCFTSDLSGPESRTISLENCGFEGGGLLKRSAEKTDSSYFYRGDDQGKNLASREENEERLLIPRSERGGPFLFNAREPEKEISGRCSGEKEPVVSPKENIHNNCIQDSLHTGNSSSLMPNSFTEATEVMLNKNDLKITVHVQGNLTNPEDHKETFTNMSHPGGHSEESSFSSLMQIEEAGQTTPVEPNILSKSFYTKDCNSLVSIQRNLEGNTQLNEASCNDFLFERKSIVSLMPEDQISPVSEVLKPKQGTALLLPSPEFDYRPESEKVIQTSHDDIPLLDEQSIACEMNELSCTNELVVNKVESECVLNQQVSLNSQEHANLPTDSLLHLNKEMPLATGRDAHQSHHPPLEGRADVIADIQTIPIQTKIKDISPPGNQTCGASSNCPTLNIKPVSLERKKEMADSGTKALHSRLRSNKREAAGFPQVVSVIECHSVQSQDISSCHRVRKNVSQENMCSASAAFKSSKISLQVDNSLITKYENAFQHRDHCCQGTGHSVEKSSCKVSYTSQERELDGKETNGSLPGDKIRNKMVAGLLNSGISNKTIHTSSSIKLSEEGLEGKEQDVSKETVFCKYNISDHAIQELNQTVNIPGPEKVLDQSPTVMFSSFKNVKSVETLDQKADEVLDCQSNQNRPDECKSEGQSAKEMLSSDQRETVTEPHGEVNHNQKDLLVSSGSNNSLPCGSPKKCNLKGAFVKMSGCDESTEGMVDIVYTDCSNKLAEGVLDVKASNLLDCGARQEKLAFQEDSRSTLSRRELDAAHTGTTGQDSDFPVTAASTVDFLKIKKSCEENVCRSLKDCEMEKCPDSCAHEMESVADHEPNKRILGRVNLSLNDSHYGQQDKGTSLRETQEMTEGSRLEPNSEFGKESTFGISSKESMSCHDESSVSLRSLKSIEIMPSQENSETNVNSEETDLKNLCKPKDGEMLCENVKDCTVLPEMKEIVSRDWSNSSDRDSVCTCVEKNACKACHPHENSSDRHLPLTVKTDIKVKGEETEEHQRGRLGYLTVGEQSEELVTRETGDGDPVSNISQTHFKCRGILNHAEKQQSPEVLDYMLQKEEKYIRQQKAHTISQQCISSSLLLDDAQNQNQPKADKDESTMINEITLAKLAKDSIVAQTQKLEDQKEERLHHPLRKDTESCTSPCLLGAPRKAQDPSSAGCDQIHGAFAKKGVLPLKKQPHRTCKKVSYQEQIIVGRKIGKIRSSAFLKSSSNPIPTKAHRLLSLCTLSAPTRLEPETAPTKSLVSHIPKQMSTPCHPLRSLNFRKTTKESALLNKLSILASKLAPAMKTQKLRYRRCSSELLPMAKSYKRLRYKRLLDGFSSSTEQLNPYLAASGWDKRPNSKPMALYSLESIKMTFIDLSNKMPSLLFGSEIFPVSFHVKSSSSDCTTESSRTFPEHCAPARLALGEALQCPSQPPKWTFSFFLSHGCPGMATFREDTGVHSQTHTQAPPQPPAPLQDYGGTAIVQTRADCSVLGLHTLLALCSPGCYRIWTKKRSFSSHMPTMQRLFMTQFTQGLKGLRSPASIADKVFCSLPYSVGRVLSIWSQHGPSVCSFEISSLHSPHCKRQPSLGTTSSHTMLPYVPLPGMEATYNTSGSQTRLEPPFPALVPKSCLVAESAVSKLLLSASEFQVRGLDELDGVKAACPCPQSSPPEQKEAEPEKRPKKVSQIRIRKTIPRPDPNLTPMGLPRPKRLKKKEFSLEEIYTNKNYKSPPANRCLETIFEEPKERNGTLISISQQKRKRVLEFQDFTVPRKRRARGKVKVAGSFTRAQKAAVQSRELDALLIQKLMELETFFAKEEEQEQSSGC
UniProt P42785: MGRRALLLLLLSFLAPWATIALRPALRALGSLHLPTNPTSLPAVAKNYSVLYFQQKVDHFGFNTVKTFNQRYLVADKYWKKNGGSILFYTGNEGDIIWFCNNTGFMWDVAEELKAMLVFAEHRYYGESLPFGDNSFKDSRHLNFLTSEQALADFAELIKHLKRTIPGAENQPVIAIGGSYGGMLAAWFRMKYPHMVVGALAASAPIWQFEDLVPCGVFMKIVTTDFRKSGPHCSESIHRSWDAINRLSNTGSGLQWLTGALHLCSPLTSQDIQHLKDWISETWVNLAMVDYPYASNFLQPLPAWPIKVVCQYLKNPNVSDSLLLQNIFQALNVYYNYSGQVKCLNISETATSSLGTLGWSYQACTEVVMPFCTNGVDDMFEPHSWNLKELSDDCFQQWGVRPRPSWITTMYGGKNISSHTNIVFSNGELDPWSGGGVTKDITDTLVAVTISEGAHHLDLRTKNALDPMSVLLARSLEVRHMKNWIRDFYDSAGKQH
UniProt P63151: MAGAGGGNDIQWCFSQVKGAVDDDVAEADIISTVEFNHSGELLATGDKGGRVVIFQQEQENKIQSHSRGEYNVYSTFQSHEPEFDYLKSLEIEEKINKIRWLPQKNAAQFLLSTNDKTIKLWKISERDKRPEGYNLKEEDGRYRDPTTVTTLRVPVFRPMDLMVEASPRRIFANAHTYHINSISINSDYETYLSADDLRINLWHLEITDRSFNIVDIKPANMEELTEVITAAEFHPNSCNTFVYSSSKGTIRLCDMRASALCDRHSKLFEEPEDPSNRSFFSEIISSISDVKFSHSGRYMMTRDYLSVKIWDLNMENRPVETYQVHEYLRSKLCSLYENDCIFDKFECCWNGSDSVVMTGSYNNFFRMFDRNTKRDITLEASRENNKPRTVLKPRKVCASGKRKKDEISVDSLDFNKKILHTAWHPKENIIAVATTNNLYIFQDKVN
UniProt P50336: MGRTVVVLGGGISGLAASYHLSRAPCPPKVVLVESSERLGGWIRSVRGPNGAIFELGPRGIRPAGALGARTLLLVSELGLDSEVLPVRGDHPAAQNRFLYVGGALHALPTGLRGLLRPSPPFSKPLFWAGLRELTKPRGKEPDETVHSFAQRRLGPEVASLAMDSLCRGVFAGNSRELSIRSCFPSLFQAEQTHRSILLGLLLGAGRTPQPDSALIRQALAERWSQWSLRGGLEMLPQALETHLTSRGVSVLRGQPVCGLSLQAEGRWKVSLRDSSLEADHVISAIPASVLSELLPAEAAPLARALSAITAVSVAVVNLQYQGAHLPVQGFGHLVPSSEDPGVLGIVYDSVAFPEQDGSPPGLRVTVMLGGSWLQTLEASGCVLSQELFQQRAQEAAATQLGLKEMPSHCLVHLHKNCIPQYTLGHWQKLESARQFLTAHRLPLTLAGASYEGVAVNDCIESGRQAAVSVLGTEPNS
UniProt Q9Y570: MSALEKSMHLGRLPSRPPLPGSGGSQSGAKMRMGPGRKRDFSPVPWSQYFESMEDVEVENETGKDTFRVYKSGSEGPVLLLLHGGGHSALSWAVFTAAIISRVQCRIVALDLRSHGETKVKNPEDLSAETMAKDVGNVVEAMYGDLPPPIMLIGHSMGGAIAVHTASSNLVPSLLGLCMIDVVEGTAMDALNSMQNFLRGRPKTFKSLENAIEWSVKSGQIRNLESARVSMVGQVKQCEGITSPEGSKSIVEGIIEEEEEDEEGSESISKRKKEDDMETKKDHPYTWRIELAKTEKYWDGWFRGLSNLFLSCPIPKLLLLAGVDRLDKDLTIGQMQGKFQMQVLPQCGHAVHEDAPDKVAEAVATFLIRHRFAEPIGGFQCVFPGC
UniProt Q9BZL4: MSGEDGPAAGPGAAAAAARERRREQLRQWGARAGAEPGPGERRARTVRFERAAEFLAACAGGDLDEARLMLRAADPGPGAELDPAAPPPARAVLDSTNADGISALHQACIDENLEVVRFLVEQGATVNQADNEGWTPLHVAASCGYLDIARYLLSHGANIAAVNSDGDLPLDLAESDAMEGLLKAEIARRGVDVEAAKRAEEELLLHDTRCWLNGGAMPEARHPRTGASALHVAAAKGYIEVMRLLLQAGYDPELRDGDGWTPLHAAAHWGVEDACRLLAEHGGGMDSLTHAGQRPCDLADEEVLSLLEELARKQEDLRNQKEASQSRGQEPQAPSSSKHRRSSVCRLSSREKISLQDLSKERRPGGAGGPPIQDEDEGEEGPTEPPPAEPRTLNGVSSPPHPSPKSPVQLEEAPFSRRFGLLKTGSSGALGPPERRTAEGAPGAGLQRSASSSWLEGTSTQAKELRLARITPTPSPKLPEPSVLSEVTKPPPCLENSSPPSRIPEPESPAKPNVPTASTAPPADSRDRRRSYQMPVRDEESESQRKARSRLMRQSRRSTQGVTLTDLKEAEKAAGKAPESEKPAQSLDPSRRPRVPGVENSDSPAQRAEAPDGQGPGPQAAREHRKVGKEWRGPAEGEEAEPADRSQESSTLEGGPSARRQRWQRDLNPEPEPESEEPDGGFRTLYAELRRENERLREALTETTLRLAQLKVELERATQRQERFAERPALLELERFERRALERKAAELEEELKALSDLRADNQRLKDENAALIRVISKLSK
UniProt O94806: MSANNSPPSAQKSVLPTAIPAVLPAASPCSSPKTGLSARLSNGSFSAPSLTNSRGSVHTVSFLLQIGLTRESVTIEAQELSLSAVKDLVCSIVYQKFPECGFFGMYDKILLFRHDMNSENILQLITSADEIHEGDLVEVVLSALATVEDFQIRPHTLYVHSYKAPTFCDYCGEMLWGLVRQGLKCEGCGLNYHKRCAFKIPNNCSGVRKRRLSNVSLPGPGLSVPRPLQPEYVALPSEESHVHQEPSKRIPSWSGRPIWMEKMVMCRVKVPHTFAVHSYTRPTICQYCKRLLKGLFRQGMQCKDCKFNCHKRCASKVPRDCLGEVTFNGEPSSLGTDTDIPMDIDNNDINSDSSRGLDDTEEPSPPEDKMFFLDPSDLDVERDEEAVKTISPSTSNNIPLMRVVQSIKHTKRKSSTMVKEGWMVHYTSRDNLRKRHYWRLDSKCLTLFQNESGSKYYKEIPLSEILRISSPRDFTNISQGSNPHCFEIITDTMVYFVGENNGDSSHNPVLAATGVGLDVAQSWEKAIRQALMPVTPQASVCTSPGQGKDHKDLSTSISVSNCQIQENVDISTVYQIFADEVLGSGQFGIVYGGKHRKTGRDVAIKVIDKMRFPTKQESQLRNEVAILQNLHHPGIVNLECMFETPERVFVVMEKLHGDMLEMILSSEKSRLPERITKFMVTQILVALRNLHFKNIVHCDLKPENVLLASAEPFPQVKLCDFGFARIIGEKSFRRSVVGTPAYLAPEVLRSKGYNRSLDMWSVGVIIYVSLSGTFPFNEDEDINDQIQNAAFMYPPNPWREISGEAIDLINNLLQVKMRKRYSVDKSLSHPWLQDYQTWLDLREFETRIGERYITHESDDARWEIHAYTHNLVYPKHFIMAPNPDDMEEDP
UniProt O94906: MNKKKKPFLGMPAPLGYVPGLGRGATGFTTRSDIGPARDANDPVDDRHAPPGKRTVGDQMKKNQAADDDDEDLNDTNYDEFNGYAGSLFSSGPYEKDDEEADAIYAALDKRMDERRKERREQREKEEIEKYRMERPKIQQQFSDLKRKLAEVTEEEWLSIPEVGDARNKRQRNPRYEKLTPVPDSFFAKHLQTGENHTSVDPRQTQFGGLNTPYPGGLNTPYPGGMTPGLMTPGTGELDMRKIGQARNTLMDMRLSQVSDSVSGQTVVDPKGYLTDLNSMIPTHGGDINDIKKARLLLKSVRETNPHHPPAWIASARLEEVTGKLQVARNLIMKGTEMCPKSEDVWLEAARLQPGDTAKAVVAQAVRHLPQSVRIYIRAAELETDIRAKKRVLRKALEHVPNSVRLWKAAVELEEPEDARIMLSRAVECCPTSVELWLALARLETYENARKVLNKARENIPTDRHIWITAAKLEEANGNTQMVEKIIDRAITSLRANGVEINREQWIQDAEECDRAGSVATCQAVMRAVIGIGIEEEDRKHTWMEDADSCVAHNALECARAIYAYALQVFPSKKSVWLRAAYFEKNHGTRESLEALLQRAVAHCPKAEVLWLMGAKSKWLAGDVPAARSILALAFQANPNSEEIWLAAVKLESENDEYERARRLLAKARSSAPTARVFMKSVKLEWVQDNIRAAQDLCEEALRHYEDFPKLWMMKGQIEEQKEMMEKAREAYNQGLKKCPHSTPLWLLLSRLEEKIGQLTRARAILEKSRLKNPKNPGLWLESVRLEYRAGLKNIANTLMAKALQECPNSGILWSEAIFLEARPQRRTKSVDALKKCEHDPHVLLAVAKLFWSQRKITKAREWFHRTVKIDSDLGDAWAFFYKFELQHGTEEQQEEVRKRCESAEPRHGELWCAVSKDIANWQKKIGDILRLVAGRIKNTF

[2] = compound: CC1=C2C(=CC=C1)N=C(N(C2=O)C3=CC=CC=C3C)CN4C=NC5=C(N=CN=C54)N
Method in brief: as §1

[3] = compound: Cc1sc2c(c1C)C(c1ccc(Cl)cc1)=N[C@@H](CC(=O)OC(C)(C)C)c1nnc(C)n1-2
Method in brief: as §1

[4] = compound: c1ccc([C@@H]2C[C@H]2NC2CCNCC2)cc1
Method in brief: as §1

[5] = compound: C1=CC=C(C=C1)[C@H](COC2=CC3=C(C=C2)NC(=O)N3)NC(=O)C4=CC=CN(C4=O)CC5=CC(=C(C=C5)F)F
Method in brief: as §1

Measured: log2 fold change

PRR14L (UniProt Q5THK1)
inactive: [1] -0.052 | [2] 0.312 | [3] 0.042 | [4] 0.103

PRCP (UniProt P42785)
inactive: [5] 0.023 | [1] -0.036 | [2] -0.061 | [3] 0.018 | [4] 0.062

PRELID3B (UniProt Q9Y3B1)
inactive: [3] 0.336

Two records drawn at random from the list so far, as already listed:
PRR14L (UniProt Q5THK1)
inactive: [1] -0.052 | [2] 0.312 | [3] 0.042 | [4] 0.103

PRELID3B (UniProt Q9Y3B1)
inactive: [3] 0.336

The list continues:

PRIM2 (UniProt P49643)
inactive: [5] -0.07 | [1] 0.063 | [2] 0.189 | [3] 0.014 | [4] -0.092

PPP2R1B (UniProt H0YDG7)
inactive: [5] 0.085 | [1] 0.165 | [3] 0.135 | [4] 0.07

PPP1R9A isoform 3 (UniProt Q9ULJ8)
inactive: [5] 0.176 | [2] -0.049

PPP2R2A isoform 2 (UniProt P63151)
inactive: [5] 0.021 | [1] 0.037 | [2] 0.016 | [3] -0.006 | [4] 0.006

PPP1R14C (UniProt Q8TAE6)
inactive: [5] -0.134 | [1] 0.077 | [2] -0.109 | [3] -0.017 | [4] 0.25

PPWD1 (UniProt Q96BP3)
inactive: [5] -0.028 | [1] 0.099 | [2] 0.071 | [3] 0.015 | [4] 0

PPOX (UniProt P50336)
inactive: [5] 0.385 | [1] 0.092 | [2] 0.129 | [3] 0.04 | [4] -0.045

PPP2R5B (UniProt Q15173)
inactive: [5] -0.058 | [2] -0.098

PPME1 (UniProt Q9Y570)
inactive: [5] -0.039 | [1] 0.061 | [2] 0.033 | [3] -0.027 | [4] -0.012

PPP1R12C (UniProt Q9BZL4)
inactive: [5] -0.16 | [2] 0.05 | [3] 0.053

PROSER1 (UniProt Q86XN7)
inactive: [3] 0.138

PROSER3 (UniProt Q2NL68)
inactive: [5] 0.134 | [1] -0.1 | [3] -0.043 | [4] 0

PRKCE (UniProt Q02156)
inactive: [5] -0.065 | [1] 0.033 | [2] 0.071 | [3] 0.018 | [4] 0

PPP6C isoform 3 (UniProt O00743)
inactive: [5] 0.045 | [1] 0.001 | [2] -0.017 | [3] 0.006 | [4] 0.03

PRDM2 (UniProt Q13029)
inactive: [1] -0.149 | [2] -0.427 | [3] 0.073 | [4] 0.001

PRDX4 (UniProt Q13162)
inactive: [5] -0.023 | [1] 0.043 | [2] 0.032 | [3] 0.012 | [4] 0.018

PRKD3 (UniProt O94806)
inactive: [5] -0.103 | [1] 0.044 | [2] -0.007 | [4] -0.097

PRPF6 (UniProt O94906)
inactive: [5] -0.286 | [3] 0.184

PRC1 (UniProt O43663)
inactive: [1] -0.057 | [3] -0.036 | [4] 0.041

PPTC7 (UniProt Q8NI37)
inactive: [2] 0.1
